Assay results reported in PMC3372476.
These are yes or no findings as the source states them, for the method shown. Binding seen in cells or lysates may run through a third protein. Some binding calls cover weakened binding; strength is not graded here.

Sequences of proteins named here, by UniProt entry; tags and fusion partners are left off.
UniProt P39688: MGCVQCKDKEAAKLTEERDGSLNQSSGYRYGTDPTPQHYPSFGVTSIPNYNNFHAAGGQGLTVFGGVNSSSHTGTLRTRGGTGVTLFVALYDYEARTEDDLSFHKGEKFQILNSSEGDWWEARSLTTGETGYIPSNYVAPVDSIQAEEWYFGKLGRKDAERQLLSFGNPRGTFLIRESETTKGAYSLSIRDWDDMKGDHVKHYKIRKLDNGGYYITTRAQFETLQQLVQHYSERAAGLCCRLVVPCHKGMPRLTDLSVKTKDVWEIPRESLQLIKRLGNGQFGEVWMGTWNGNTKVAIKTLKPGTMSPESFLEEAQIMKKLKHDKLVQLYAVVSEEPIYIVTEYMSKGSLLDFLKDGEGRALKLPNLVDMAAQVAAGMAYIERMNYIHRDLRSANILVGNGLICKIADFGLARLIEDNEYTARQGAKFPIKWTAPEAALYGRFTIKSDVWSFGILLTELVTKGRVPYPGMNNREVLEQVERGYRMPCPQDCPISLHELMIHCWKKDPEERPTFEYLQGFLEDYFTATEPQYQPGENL
UniProt P18031: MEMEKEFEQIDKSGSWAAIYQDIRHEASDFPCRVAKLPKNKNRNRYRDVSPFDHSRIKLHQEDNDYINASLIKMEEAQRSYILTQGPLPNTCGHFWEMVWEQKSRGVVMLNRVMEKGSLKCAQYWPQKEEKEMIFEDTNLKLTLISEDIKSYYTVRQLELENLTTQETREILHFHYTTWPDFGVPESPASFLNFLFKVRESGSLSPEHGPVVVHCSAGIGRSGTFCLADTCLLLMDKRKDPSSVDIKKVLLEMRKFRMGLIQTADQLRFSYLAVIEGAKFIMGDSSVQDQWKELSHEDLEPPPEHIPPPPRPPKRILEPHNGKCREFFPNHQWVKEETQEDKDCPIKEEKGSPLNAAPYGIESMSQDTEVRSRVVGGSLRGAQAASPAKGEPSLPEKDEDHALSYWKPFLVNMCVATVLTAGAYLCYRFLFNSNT

Molecular target: Fyn-YN (UniProt P39688)
Assay: split reporter; BiFC with YFP fragments YC (155-238) and YN (1-154) in co-transfected CHO-K1 cells on fibronectin-coated coverslips; whole cells, fixed (also live cells and TIRFM), wide-field fluorescence; cells scored as background, ER + punctate or only punctate

In the case of “YC-PTP1BWT (from UniProt P18031 1-435) (enzyme)”, the binding is reported as “binds”.
